In the supplement of paper PMC10849652:
The other results are listed elsewhere or left out.

Protein sequences, listed by entry. Tags and fused reporters are not part of them. Lines headed by an entry give the natural chain unless they say otherwise; changes in a name come on top.
UniProt Q96I15: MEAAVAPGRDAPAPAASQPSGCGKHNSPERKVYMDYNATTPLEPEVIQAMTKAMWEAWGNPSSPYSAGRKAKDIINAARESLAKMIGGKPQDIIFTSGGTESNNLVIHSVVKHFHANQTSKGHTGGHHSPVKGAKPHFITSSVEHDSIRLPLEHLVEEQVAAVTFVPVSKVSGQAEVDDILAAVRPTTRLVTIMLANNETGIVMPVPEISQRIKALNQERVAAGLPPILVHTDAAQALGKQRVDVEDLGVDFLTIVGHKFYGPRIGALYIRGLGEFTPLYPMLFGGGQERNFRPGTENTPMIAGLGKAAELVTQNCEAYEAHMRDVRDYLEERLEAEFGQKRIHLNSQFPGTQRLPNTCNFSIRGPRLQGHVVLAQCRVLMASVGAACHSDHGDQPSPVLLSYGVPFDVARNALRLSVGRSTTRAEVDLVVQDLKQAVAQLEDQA
UniProt O00422: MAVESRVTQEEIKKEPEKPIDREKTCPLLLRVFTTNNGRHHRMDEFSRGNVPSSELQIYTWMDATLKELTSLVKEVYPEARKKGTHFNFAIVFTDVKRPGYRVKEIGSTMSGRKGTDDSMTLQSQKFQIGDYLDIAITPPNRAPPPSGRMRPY
UniProt Q9BY42: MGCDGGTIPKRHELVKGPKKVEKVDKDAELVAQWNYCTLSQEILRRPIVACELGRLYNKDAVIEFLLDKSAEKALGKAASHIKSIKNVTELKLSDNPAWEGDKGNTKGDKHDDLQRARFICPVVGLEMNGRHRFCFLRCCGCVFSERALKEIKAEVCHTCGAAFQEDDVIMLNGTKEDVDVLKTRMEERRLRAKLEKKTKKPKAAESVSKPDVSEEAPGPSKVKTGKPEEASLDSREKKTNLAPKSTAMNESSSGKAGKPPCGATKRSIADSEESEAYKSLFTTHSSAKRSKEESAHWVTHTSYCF
UniProt Q96T23: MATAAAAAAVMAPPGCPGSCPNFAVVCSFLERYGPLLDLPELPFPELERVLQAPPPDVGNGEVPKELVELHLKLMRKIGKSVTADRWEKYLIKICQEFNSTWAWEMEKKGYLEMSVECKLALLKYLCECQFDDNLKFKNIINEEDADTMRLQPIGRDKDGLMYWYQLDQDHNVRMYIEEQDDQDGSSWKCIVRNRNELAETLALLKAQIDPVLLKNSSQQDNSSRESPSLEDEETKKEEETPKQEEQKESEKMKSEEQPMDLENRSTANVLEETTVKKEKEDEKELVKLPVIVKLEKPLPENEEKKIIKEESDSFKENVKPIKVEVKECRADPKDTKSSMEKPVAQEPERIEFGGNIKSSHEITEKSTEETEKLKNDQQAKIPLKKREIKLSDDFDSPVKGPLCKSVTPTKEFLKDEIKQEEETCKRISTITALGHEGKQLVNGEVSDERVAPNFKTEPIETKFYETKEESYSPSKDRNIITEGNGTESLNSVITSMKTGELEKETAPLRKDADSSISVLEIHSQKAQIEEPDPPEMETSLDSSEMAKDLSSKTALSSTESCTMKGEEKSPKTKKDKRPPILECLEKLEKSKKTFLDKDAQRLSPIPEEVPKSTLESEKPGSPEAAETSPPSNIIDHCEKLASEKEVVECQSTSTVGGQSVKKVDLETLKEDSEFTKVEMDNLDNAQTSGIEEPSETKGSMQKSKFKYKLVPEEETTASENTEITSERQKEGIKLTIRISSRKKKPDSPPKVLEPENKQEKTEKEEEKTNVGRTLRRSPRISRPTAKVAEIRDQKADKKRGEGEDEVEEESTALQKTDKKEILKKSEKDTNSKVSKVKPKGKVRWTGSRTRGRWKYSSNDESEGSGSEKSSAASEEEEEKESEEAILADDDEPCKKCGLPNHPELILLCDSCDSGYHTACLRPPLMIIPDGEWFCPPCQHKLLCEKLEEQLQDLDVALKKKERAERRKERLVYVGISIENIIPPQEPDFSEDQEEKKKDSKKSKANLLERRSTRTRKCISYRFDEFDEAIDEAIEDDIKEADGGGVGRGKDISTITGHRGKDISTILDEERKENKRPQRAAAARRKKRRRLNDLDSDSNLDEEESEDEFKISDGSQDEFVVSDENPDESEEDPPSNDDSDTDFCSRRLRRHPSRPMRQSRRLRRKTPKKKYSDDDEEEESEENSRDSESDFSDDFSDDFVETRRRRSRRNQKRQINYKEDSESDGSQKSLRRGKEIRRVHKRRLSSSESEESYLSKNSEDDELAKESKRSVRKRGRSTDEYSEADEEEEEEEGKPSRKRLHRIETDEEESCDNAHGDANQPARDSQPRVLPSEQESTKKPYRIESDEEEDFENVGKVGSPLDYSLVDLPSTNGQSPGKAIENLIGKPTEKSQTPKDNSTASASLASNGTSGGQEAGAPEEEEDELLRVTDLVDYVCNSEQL
UniProt Q12770: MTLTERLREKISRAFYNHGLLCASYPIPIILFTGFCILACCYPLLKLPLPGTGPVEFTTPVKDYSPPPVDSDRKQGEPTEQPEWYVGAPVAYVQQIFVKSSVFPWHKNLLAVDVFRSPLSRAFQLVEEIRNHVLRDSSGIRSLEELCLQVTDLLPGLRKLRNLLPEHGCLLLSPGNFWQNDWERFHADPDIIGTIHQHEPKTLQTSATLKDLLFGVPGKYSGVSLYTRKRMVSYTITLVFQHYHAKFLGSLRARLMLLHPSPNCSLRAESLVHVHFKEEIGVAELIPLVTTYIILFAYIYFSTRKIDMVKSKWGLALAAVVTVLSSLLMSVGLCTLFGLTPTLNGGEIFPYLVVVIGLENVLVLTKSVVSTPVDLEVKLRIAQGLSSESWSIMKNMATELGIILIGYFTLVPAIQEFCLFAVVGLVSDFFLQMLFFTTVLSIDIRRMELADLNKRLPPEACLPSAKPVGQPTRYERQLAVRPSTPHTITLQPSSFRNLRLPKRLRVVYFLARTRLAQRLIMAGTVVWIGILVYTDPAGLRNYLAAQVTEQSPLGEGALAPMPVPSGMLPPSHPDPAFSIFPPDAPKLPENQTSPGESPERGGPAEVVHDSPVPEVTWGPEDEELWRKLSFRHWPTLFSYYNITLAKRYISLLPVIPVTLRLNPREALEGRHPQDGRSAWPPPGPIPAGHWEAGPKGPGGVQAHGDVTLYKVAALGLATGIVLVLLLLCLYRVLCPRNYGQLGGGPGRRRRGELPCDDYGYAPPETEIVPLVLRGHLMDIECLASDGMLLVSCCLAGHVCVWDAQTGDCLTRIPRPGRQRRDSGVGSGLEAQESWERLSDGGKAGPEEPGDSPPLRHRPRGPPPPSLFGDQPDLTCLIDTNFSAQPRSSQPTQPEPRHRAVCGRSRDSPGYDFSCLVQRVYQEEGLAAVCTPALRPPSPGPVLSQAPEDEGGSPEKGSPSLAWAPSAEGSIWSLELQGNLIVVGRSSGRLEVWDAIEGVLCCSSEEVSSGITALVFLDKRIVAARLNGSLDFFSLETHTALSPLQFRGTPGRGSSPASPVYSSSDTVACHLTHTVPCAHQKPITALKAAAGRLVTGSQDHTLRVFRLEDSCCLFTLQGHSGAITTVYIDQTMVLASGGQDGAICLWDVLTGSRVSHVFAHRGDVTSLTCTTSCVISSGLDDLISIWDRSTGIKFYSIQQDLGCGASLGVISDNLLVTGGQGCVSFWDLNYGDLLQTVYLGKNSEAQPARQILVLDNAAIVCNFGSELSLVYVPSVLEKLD
UniProt A3KN83: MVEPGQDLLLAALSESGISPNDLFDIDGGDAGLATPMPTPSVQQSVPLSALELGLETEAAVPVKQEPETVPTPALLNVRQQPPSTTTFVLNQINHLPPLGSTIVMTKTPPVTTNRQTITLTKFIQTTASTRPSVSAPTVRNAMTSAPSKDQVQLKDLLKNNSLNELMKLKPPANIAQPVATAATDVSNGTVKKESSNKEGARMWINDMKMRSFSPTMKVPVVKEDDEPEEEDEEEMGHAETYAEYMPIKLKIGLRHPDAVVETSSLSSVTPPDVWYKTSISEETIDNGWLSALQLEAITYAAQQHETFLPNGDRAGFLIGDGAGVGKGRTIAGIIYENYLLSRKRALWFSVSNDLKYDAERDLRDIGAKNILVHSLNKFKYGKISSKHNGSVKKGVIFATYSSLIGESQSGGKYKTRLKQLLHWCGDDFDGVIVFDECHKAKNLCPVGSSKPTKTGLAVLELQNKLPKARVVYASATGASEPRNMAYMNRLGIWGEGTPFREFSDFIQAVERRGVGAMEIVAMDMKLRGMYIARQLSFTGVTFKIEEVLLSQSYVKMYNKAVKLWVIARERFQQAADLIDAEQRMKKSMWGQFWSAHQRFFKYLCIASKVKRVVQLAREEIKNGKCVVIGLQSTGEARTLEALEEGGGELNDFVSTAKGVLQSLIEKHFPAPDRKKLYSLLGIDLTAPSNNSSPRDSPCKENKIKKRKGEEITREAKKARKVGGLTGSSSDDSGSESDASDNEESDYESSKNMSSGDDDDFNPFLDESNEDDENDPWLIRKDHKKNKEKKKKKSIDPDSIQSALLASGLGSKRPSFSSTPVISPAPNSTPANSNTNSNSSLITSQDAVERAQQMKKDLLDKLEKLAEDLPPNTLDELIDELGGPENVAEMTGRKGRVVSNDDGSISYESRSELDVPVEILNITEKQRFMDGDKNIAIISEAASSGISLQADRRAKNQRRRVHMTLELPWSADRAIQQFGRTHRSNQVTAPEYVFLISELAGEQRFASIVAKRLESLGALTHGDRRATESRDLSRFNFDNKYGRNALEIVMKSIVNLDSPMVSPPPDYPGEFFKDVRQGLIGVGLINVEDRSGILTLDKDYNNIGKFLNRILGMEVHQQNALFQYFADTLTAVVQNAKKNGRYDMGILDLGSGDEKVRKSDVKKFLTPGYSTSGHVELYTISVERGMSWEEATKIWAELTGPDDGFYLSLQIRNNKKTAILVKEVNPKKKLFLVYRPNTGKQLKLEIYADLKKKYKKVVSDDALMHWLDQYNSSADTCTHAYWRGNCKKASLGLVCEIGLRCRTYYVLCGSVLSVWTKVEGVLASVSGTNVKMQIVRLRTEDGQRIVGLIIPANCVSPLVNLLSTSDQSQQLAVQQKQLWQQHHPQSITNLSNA
UniProt Q99590: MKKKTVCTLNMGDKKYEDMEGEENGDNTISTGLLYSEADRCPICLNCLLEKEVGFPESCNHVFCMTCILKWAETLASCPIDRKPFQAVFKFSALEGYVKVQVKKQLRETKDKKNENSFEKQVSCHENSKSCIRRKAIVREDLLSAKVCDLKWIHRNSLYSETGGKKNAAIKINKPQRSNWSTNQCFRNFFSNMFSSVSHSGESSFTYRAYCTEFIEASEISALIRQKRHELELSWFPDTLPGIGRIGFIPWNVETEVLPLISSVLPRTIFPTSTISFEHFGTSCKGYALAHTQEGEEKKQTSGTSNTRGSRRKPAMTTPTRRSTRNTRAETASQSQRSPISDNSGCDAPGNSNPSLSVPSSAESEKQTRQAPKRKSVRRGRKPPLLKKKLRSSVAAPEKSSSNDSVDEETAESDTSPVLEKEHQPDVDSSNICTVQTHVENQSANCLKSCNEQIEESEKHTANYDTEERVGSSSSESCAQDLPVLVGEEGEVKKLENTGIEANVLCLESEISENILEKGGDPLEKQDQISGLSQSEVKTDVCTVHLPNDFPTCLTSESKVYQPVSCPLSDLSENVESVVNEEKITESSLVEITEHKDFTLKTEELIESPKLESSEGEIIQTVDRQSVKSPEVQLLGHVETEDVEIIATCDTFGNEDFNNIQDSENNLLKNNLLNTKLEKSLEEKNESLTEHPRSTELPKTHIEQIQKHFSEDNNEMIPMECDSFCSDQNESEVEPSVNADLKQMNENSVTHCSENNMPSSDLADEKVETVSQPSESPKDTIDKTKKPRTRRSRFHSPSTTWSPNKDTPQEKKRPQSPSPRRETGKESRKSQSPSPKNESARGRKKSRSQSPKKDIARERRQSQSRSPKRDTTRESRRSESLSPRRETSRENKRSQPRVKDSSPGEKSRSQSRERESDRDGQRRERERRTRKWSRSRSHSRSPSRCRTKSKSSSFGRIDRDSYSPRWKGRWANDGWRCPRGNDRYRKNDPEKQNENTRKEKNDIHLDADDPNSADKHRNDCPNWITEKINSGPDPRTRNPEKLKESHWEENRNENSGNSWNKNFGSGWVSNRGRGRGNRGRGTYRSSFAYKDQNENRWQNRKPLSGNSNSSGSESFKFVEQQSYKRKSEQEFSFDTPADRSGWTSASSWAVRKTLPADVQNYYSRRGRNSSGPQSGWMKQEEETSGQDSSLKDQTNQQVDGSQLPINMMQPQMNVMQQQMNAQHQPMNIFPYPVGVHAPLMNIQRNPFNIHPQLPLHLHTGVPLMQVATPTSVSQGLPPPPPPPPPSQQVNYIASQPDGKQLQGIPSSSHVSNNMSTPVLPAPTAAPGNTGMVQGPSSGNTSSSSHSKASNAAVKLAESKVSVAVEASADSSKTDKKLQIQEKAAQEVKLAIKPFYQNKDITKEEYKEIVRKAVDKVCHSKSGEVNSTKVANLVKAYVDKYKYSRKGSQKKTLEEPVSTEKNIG

How the values were obtained:
Assay in all cases: log2 fold change, soluble protein after heating vs DMSO (PISA); higher = thermal stabilisation; K562 cells, 10 uM, 30 min; active = over 0.2 and 3.5 SD of the protein, either way, in both replicates (recomputed)
[1] = compound: CS(=O)(=O)c1ccc(-c2cnc(N)c(C(=O)Nc3ccccc3)n2)cc1
Procedure, shortened: (§1)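 Values are thermal stability changes relative to control samples and are taken from duplicates. They are stated as log2 fold changes. Before quantification by TMTpro 16plex LC-MS/MS with equalised channel sums, K562 cells at 2×10^6 cells/mL were treated with 10 μM compound for 30 min, heated in aliquots for 3 min across 48°C-58°C, pooled, extracted in PBS with 0.5% NP-40 at 4°C, and centrifuged at 21,000xg for 90 min to give the soluble supernatant.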

crizotinib = compound: C[C@@H](Oc1cc(-c2cnn(C3CCNCC3)c2)cnc1N)c1c(Cl)ccc(F)c1Cl [crizotinib]
Procedure, shortened: as §1

[2] = compound: C[C@@H]1COCCN1C2=NC(=NC(=C2)C3(CC3)S(=O)(=O)C)C4=C5C=CNC5=CC=C4
Procedure, shortened: as §1

[3] = compound: C[C@H](C1=CC=C(C=C1)C(=O)NC2=C3C=CNC3=NC=C2)N
Procedure, shortened: as §1

duvelisib = compound: C[C@H](Nc1ncnc2nc[nH]c12)c1cc2cccc(Cl)c2c(=O)n1-c1ccccc1 [duvelisib]
Procedure, shortened: as §1

gandotinib = compound: Cc1cc(Nc2cc(CN3CCOCC3)c3nc(C)c(Cc4ccc(Cl)cc4F)n3n2)n[nH]1 [gandotinib]
Procedure, shortened: as §1

tozasertib = compound: Cc1cc(Nc2cc(N3CCN(C)CC3)nc(Sc3ccc(NC(=O)C4CC4)cc3)n2)n[nH]1 [tozasertib]
Procedure, shortened: as §1

[4] = compound: Cc1cc(SCc2sc(-c3ccc(C(F)(F)F)cc3)nc2C)ccc1OCC(=O)O
Procedure, shortened: as §1

doramapimod = compound: Cc1ccc(-n2nc(C(C)(C)C)cc2NC(=O)Nc2ccc(OCCN3CCOCC3)c3ccccc23)cc1 [doramapimod]
Procedure, shortened: as §1

ispinesib = compound: Cc1ccc(C(=O)N(CCCN)[C@@H](c2nc3cc(Cl)ccc3c(=O)n2Cc2ccccc2)C(C)C)cc1 [ispinesib]
Procedure, shortened: as §1

Target	log2 fold change [1]	log2 fold change (crizotinib)	log2 fold change [2]	log2 fold change [3]	log2 fold change (duvelisib)	log2 fold change (gandotinib)	log2 fold change (tozasertib)	log2 fold change [4]	log2 fold change (doramapimod)	log2 fold change (ispinesib)
SCLY (UniProt Q96I15)	inactive: 0.022	inactive: -0.006	inactive: 0.034	inactive: -0.092	inactive: 0.047	inactive: 0.072	inactive: -0.018	inactive: -0.051	inactive: 0.015	inactive: 0.042
SAP18 isoform 2 (UniProt O00422)	inactive: -0.171	inactive: -0.096	inactive: -0.114	inactive: 0.176	inactive: -0.036	inactive: 0.096	inactive: 0.028	inactive: -0.002	inactive: 0.039	inactive: -0.123
RTN4 (UniProt Q9NQC3)	inactive: -0.023	inactive: 0.013	inactive: 0.002	inactive: -0.036	inactive: 0.06	inactive: -0.071	inactive: -0.013	inactive: -0.042	inactive: 0.001	inactive: -0.008
RTF2 (UniProt Q9BY42)	inactive: -0.005	inactive: 0.234	inactive: -0.061	inactive: -0.089	–	inactive: 0.104	–	inactive: -0.003	inactive: -0.083	inactive: 0.151
SDAD1 (UniProt Q9NVU7)	inactive: 0.04	inactive: -0.362	inactive: 0.071	inactive: 0.04	inactive: -0.044	inactive: -0.035	–	inactive: -0.038	inactive: 0.166	inactive: -0.044
RRS1 (UniProt Q15050)	inactive: -0.022	inactive: 0	inactive: -0.365	inactive: 0.304	–	inactive: 0.089	–	inactive: -0.034	inactive: 0.235	inactive: 0.019
RTN2 (UniProt O75298)	inactive: -0.091	inactive: -0.045	inactive: 0.189	inactive: -0.117	inactive: 0.121	–	inactive: 0.009	inactive: -0.077	inactive: 0.009	inactive: -0.09
RSF1 (UniProt Q96T23)	inactive: 0.056	inactive: -0.054	inactive: -0.002	inactive: -0.058	–	inactive: -0.104	–	inactive: 0.194	inactive: 0.043	inactive: 0.087
SCCPDH (UniProt Q8NBX0)	inactive: 0.074	inactive: 0.333	inactive: 0.058	inactive: -0.093	–	inactive: 0.313	–	inactive: 0.124	inactive: 0.007	inactive: 0.081
RSBN1 (UniProt Q5VWQ0)	inactive: 0.033	inactive: 0.002	inactive: -0.329	inactive: 0.318	inactive: -0.27	inactive: 0.255	inactive: 0.048	inactive: -0.015	inactive: 0.286	inactive: -0.055
SEC31A (UniProt O94979)	inactive: 0.045	inactive: -0.011	inactive: 0.007	inactive: 0.084	–	inactive: -0.158	–	inactive: 0.064	inactive: 0	inactive: 0.034
SCAF8 isoform 2 (UniProt Q9UPN6)	inactive: 0.085	inactive: -0.011	inactive: 0.1	inactive: -0.018	–	inactive: -0.098	–	inactive: 0.065	inactive: 0.003	inactive: -0.181
S100PBP (UniProt Q96BU1)	inactive: -0.022	inactive: 0.125	inactive: 0.03	inactive: -0.425	–	inactive: -0.026	inactive: 0	–	inactive: 0.043	inactive: 0.049
SCAP (UniProt Q12770)	inactive: -0.012	inactive: 0.045	inactive: 0.049	inactive: -0.032	inactive: 0.04	inactive: 0.03	inactive: -0.095	inactive: 0.016	inactive: 0.016	inactive: -0.083
SCG3 (UniProt Q8WXD2)	inactive: -0.069	inactive: 0.074	inactive: -0.089	inactive: -0.109	–	inactive: -0.101	–	inactive: -0.194	inactive: 0.124	inactive: 0.171
SEC23B (UniProt Q15437)	inactive: -0.008	inactive: 0.05	inactive: 0.027	inactive: -0.035	inactive: 0.04	inactive: -0.027	inactive: 0.015	inactive: 0.048	inactive: -0.011	inactive: 0.068

Complete entries, quoted from the list. Values in the order: log2 fold change [1] | log2 fold change (crizotinib) | log2 fold change [2] | log2 fold change [3] | log2 fold change (duvelisib) | log2 fold change (gandotinib) | log2 fold change (tozasertib) | log2 fold change [4] | log2 fold change (doramapimod) | log2 fold change (ispinesib)
RSF1 (UniProt Q96T23) is entered as inactive: 0.056 | inactive: -0.054 | inactive: -0.002 | inactive: -0.058 | – | inactive: -0.104 | – | inactive: 0.194 | inactive: 0.043 | inactive: 0.087
SEC31A (UniProt O94979) is entered as inactive: 0.045 | inactive: -0.011 | inactive: 0.007 | inactive: 0.084 | – | inactive: -0.158 | – | inactive: 0.064 | inactive: 0 | inactive: 0.034

Going on with the list.

Target	log2 fold change [1]	log2 fold change (crizotinib)	log2 fold change [2]	log2 fold change [3]	log2 fold change (duvelisib)	log2 fold change (gandotinib)	log2 fold change (tozasertib)	log2 fold change [4]	log2 fold change (doramapimod)	log2 fold change (ispinesib)
RTN4IP1 (UniProt Q8WWV3)	inactive: 0.015	inactive: -0.084	inactive: 0.064	inactive: -0.045	–	inactive: 0.117	–	inactive: 0.225	inactive: 0.041	inactive: -0.137
RRP12 (UniProt Q5JTH9)	inactive: -0.056	inactive: -0.074	inactive: -0.242	active: 0.811	–	inactive: 0.074	–	inactive: 0.053	inactive: 0.203	inactive: -0.172
SASH1 (UniProt O94885)	inactive: 0.023	inactive: -0.122	inactive: -0.077	inactive: -0.024	–	inactive: -0.028	–	inactive: 0.198	inactive: -0.031	inactive: -0.116
SDHB, A0A087WWT1	inactive: 0.074	inactive: 0	inactive: 0.079	inactive: 0.164	inactive: 0.182	inactive: -0.07	–	inactive: -0.093	inactive: -0.022	inactive: -0.197
RTN3 isoform 5 (UniProt O95197)	inactive: 0.037	inactive: 0.061	inactive: 0.443	inactive: -0.009	inactive: 0.291	–	inactive: 0.082	inactive: 0.086	inactive: -0.02	inactive: 0.068
SAMD4B (UniProt Q5PRF9)	inactive: -0.102	active: -0.527	inactive: -0.036	inactive: 0.009	–	inactive: -0.135	–	inactive: 0.029	inactive: 0.073	inactive: -0.082
RSPRY1 (UniProt Q96DX4)	inactive: -0.037	inactive: 0.11	inactive: 0.02	inactive: -0.006	–	inactive: 0.067	–	inactive: 0.012	inactive: 0.083	inactive: 0.033
SEC16A isoform 5 (UniProt O15027)	inactive: -0.032	inactive: -0.231	inactive: -0.113	inactive: 0.143	–	inactive: 0.087	–	inactive: 0.118	inactive: 0.023	inactive: -0.119
SCYL2 (UniProt Q6P3W7)	inactive: -0.033	inactive: -0.054	inactive: 0.043	inactive: -0.022	inactive: 0.035	inactive: -0.115	inactive: -0.001	inactive: -0.02	inactive: 0.011	inactive: 0.018
SBNO1 (UniProt A3KN83)	inactive: -0.003	inactive: 0.021	inactive: 0.039	inactive: -0.038	inactive: 0.011	inactive: 0	inactive: -0.016	inactive: 0.031	inactive: -0.046	inactive: 0.072
SAFB2 (UniProt Q14151)	inactive: -0.079	inactive: -0.016	inactive: -0.316	inactive: 0.164	–	inactive: 0.184	–	inactive: 0.006	inactive: 0.089	inactive: -0.043
SAP30 (UniProt O75446)	inactive: -0.087	inactive: 0.012	inactive: -0.047	inactive: 0.098	–	inactive: 0.162	–	inactive: 0.124	inactive: -0.088	–
SEC23IP (UniProt Q9Y6Y8)	inactive: 0.142	inactive: -0.238	inactive: 0.055	inactive: 0.039	–	inactive: -0.212	–	inactive: 0.074	inactive: 0.043	inactive: -0.166
SCPEP1 (UniProt Q9HB40)	inactive: -0.03	active: -0.254	inactive: -0.041	inactive: -0.028	–	inactive: 0.127	–	inactive: 0.032	inactive: -0.032	inactive: -0.163
SCAF11 (UniProt Q99590)	inactive: 0.021	inactive: -0.06	inactive: -0.069	inactive: 0.229	–	inactive: 0.543	–	inactive: -0.106	inactive: -0.05	inactive: -0.012
